Data published in the supplement of paper PMC12819154, “High-throughput peptide-centric local stability assay extends protein–ligand identification to membrane proteins, tissues and bacteria” (Nature Structural & Molecular Biology, 2025).
The list shows a part of the results. Most values lie at the level of the controls, where differences are scatter.

By UniProt entry, the sequences of proteins in these tests, tags left out. Where a name states a change or a piece, a line headed by the entry shows the natural chain unless it says otherwise.
UniProt O75376, whole entry: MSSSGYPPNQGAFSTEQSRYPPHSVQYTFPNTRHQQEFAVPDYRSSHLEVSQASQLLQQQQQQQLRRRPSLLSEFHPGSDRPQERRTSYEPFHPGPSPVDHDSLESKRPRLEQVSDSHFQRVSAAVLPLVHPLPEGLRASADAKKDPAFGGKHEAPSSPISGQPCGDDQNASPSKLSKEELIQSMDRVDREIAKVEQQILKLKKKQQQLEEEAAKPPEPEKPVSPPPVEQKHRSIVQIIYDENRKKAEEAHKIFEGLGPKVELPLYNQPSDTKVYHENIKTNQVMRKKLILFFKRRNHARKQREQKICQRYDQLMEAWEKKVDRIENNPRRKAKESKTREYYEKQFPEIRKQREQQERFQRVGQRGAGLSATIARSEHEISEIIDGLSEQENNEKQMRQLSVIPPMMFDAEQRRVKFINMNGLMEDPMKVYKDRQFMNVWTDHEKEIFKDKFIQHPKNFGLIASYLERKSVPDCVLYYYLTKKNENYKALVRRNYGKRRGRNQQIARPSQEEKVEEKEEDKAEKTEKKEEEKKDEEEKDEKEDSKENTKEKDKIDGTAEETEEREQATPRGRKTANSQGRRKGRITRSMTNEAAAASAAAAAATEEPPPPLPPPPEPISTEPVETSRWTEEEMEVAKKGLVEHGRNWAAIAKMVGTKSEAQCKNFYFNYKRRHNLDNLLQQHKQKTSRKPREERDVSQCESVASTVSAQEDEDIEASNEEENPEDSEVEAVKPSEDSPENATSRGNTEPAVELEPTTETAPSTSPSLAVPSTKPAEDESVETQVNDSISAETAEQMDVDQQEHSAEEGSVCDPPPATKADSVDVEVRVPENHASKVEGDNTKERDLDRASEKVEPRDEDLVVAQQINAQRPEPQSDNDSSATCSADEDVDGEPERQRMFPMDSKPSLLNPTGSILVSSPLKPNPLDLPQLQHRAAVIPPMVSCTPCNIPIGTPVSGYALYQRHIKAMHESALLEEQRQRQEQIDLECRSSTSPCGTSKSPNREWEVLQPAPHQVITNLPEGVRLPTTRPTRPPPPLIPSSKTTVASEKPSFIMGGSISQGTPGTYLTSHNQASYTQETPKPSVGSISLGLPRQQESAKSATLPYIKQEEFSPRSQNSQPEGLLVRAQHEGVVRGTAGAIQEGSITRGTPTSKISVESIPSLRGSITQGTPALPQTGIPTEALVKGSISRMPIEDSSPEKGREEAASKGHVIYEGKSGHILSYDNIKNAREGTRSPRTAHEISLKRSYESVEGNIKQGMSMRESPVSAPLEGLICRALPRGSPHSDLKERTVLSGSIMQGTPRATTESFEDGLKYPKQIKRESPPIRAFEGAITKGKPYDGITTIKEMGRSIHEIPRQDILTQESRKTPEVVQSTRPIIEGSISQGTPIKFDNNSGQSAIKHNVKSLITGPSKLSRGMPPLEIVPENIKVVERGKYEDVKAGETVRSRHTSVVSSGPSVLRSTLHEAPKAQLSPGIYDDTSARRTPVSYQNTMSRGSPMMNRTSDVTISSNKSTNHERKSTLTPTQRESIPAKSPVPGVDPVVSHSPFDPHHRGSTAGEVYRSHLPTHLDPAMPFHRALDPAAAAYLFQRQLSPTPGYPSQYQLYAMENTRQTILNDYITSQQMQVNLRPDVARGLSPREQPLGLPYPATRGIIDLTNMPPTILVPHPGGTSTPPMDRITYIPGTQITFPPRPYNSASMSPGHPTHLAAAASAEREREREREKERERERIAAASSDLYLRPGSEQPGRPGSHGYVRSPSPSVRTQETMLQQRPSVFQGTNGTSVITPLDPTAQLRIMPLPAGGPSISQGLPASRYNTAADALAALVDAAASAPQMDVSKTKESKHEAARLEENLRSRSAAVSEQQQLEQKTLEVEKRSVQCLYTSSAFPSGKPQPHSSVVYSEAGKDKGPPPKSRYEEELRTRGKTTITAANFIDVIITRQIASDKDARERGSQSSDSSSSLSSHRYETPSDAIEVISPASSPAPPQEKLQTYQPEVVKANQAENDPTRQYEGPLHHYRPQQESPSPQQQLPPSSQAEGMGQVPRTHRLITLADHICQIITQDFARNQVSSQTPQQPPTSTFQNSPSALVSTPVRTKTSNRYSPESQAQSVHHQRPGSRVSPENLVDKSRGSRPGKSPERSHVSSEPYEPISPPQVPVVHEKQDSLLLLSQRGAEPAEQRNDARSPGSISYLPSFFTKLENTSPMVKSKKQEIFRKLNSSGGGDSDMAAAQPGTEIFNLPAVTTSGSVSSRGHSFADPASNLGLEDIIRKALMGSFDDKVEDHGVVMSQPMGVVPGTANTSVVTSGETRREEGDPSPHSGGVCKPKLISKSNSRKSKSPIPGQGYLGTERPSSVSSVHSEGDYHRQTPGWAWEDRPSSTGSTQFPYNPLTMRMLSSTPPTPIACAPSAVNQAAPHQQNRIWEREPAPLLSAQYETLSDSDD
UniProt O43765: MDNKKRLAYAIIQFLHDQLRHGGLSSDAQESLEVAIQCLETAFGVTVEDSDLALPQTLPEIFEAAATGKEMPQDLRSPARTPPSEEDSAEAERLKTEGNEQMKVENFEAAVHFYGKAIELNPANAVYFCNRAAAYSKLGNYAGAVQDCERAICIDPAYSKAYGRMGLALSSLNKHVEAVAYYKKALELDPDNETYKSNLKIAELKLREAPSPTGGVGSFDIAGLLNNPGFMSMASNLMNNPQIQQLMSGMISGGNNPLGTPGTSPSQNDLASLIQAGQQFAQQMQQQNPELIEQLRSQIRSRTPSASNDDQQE
UniProt O60292, whole entry: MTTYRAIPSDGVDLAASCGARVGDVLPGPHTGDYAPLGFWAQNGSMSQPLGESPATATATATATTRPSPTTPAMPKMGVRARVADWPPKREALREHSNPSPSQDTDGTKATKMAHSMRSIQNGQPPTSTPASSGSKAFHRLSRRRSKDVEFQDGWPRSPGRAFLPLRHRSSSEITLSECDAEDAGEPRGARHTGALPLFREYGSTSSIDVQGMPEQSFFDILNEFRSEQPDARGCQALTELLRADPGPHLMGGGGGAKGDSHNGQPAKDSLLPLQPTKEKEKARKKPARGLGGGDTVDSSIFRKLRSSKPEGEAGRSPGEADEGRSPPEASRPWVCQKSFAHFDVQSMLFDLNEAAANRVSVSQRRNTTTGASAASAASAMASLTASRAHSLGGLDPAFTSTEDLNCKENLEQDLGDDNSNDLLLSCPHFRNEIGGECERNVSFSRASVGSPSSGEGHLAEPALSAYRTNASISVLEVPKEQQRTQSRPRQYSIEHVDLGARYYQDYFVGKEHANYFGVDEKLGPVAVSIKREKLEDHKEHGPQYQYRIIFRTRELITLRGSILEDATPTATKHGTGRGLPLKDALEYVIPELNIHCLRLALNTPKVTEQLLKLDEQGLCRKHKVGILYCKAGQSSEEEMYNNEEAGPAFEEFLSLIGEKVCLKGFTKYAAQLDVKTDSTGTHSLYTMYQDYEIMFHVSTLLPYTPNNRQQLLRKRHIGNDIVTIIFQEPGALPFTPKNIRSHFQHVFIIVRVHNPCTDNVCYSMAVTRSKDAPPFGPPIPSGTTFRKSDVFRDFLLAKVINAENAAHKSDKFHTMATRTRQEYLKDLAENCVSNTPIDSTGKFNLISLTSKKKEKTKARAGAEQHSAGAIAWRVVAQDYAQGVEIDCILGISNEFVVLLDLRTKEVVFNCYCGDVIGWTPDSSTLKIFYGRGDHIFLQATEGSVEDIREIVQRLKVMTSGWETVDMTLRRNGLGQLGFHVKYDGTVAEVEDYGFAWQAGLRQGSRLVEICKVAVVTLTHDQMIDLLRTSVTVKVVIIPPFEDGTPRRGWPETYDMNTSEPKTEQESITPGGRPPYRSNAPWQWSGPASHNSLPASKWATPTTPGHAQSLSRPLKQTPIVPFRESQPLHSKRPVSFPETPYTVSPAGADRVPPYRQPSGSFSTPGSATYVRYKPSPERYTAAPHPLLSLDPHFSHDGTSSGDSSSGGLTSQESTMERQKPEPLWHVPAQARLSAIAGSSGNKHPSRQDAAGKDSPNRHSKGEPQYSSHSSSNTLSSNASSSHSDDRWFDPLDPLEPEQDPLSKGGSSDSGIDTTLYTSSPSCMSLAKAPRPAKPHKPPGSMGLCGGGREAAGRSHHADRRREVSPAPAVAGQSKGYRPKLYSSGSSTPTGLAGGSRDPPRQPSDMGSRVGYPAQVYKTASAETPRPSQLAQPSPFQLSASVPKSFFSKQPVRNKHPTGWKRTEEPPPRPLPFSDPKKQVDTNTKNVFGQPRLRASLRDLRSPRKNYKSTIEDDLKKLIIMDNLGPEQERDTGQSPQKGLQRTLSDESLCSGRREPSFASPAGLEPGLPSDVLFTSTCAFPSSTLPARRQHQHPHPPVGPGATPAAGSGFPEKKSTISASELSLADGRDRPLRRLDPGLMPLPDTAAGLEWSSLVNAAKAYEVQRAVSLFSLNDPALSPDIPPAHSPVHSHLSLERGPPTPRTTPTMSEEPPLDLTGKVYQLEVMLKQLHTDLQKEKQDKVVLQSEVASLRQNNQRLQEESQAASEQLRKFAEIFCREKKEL
UniProt O60888: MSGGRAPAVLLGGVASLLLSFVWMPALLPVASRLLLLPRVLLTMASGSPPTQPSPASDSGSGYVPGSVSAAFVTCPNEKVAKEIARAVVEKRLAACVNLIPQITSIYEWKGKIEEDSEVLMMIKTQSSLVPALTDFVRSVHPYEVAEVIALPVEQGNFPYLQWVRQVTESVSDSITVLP
UniProt O60499: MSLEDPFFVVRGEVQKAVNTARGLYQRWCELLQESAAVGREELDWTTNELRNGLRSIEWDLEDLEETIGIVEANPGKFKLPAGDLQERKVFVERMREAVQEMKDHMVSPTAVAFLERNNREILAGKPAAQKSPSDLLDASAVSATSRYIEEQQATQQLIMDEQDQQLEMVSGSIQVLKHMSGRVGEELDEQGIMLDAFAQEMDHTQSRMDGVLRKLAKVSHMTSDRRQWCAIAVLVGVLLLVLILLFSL
UniProt O43734: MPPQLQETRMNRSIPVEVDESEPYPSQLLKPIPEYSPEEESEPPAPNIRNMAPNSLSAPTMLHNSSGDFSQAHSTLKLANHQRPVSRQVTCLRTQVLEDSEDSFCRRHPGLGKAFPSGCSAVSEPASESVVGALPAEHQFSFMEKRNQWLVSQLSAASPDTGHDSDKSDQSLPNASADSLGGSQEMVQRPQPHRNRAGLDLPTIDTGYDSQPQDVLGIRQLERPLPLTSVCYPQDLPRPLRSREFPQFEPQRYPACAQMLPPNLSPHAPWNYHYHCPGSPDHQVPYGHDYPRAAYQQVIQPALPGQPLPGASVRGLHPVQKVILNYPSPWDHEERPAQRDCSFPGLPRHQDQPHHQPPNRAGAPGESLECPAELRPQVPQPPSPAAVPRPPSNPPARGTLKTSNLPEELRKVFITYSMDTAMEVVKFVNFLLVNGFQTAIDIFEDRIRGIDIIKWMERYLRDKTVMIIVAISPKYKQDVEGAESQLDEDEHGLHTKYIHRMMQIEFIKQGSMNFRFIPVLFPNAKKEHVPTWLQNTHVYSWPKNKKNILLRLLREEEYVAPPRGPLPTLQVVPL
UniProt O60832: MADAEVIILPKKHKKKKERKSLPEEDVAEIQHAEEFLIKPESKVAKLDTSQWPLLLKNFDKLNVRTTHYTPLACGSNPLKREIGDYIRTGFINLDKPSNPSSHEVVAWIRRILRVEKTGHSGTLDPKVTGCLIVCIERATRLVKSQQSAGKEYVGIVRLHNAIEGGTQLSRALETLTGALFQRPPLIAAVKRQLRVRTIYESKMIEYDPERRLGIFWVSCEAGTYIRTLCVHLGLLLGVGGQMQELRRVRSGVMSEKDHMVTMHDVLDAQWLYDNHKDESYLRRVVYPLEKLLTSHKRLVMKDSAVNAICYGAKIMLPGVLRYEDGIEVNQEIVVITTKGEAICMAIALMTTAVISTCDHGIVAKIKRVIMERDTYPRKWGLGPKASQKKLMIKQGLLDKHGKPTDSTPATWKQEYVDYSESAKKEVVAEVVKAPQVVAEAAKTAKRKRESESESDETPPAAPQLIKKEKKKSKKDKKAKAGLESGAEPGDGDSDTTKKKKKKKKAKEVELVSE
UniProt O75143: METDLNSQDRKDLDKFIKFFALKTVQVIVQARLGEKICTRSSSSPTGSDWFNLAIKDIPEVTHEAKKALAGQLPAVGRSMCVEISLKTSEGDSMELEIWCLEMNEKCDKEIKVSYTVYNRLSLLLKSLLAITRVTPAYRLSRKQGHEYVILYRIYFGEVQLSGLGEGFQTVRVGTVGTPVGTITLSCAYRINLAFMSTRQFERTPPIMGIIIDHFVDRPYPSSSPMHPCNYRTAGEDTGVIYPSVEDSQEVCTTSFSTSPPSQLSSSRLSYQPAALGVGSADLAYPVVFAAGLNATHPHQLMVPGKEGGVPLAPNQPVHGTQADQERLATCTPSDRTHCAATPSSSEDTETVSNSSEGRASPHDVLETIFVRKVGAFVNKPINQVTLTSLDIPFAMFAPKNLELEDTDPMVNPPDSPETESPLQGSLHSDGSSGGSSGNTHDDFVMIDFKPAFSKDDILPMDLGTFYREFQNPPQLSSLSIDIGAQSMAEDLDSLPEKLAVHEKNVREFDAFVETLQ

compound: Cc1nc(Nc2ncc(C(=O)Nc3c(C)cccc3Cl)s2)cc(N2CCN(CCO)CC2)n1 [dasatinib]; assay: log2 fold change of tryptic peptide abundance, ligand vs vehicle (limited proteolysis) (log2 ratio); higher = more trypsin-susceptible (destabilized); conditions: ligand concentration: 5 uM; sample: K562 cleared lysate

| Target | log2 fold change |
| --- | --- |
| UniProt O60381 (peptide sequence: AISVILGDR, peptide start residue: 463) | 0.271 |
| BUB3 (peptide sequence: VLVWDLR, peptide start residue: 159) (UniProt O43684) | -0.155 |
| URB1 (peptide sequence: MMQTILHFPQNR, peptide start residue: 1602) (UniProt O60287) | 0.341 |
| NCK2 (peptide sequence: KGASLSNGQGSR, peptide start residue: 184) (UniProt O43639) | 0.357 |
| WDR1 (peptide sequence: YEYQPFAGK, peptide start residue: 96) (UniProt O75083) | -0.209 |
| NCOR1 (peptide sequence: QDILTQESR, peptide start residue: 1357) (UniProt O75376) | 0.17 |
| FOXO3 (peptide sequence: AIESSPDKR, peptide start residue: 169) (UniProt O43524) | -0.139 |
| ZBED4 (peptide sequence: LTDLPTVVTK, peptide start residue: 538) (UniProt O75132) | 0.238 |
| SGTA (peptide sequence: LAYAIIQFLHDQLR, peptide start residue: 7) (UniProt O43765) | -0.353 |
| MED14 (peptide sequence: LVEGFYPAPGLK, peptide start residue: 949) (UniProt O60244) | -0.372 |
| MRPL33 (peptide sequence: LTLLHYDPVVK, peptide start residue: 41) (UniProt O75394) | -0.102 |
| UniProt O60292 (peptide sequence: GCQALTELLR, peptide start residue: 234) | -0.304 |
| SYNCRIP (peptide sequence: DYAFIHFDER, peptide start residue: 372) (UniProt O60506) | 0.144 |
| TIMM44 (peptide sequence: YKTIESETVR, peptide start residue: 104) (UniProt O43615) | -0.208 |
| RNGTT (peptide sequence: EVSHEMDGLIFQPTGK, peptide start residue: 432) (UniProt O60942) | 0.112 |
| PPP1R12B (peptide sequence: FSSGLFNKPEEPKDESPSSWR, peptide start residue: 419) (UniProt O60237) | -0.608 |
| CUTA (peptide sequence: GKIEEDSEVLMMIK, peptide start residue: 111) (UniProt O60888) | 0.313 |
| SEPTIN4 (peptide sequence: THMQDLK, peptide start residue: 292) (UniProt O43236) | -0.195 |
| STX10 (peptide sequence: EILAGKPAAQK, peptide start residue: 121) (UniProt O60499) | -0.198 |
| TRAF3IP2 (peptide sequence: HQDQPHHQPPNR, peptide start residue: 349) (UniProt O43734) | 0.169 |
| LCMT2 (peptide sequence: DCDSEWK, peptide start residue: 395) (UniProt O60294) | 0.525 |
| EXOC3 (peptide sequence: KLMDLECSR, peptide start residue: 144) (UniProt O60645) | 0.455 |
| DKC1 (peptide sequence: ADAEVIILPK, peptide start residue: 2) (UniProt O60832) | -0.317 |
| UniProt O75170 (peptide sequence: SYAVSSSVLHGIEPR, peptide start residue: 297) | -0.227 |
| UniProt O43847 (peptide sequence: FFWGNAETLKHEPR, peptide start residue: 343) | 1.67 |
| UniProt O75143 (peptide sequence: INLAFMSTR, peptide start residue: 191) | 0.427 |
| HUS1 (peptide sequence: IVDGACLNHFTR, peptide start residue: 7) (UniProt O60921) | 0.145 |
| STX6 (peptide sequence: KFNLDATELSIRK, peptide start residue: 77) (UniProt O43752) | 0.293 |

Two records drawn at random from the list so far:

| Target | log2 fold change |
| --- | --- |
| UniProt O60292 (peptide sequence: GCQALTELLR, peptide start residue: 234) | -0.304 |
| ZBED4 (peptide sequence: LTDLPTVVTK, peptide start residue: 538) (UniProt O75132) | 0.238 |
